These are yes or no findings as the source states them, for the method shown. Binding seen in cells or lysates may run through a third protein. Here binding means that the protein was enriched with, or labelled near, the bait; the list need not be complete. Sequences can lack the tags named with a protein.

Chains of the proteins cited; added tags and fusions are not shown.
UniProt P14618: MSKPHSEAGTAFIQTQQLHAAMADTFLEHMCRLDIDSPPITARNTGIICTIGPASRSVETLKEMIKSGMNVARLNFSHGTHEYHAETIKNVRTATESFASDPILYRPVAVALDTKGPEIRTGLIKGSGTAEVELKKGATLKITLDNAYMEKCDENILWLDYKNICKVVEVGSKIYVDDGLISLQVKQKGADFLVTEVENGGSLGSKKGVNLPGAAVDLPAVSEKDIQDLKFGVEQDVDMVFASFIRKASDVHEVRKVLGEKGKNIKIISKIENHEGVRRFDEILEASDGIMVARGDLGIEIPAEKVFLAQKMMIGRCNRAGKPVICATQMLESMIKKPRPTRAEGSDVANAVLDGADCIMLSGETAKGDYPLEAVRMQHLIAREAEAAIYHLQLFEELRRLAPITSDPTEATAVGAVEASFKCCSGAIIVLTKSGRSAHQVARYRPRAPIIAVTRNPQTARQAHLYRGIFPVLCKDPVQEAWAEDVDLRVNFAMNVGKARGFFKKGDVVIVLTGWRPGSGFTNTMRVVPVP

In the test the target is T1, Myc-PHGDH, ectopically expressed in HeLa cells (UniProt O43175).
T1 sequence: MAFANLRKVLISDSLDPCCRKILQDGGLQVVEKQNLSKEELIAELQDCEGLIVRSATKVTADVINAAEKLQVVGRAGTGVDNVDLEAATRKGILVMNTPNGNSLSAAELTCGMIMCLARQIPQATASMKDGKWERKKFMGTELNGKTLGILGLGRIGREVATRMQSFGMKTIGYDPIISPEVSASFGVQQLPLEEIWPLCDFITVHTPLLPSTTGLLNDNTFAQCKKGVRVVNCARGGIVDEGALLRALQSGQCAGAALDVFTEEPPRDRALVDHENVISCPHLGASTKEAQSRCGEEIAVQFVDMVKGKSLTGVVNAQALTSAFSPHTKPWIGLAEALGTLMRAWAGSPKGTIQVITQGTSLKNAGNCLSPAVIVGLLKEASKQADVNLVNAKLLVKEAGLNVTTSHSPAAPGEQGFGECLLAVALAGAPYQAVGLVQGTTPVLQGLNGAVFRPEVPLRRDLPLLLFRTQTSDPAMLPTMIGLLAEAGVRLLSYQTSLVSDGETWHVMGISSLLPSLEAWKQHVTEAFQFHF
In words: affinity purification with mass spectrometry; Myc-PHGDH and FLAG-PKM2 immunoprecipitated from HeLa cells with anti-Myc and anti-FLAG antibodies as the bait; LC-MS.

“pyruvate kinase M2 (PKM2), found with Myc-PHGDH from HeLa cells (from UniProt P14618 1-531)”: the binding entry is “binds”.

These data come from article PMC10006232.
